# Laboratory results published in the supplement of paper PMC12067093, “Discovery and optimisation of a covalent ligand for TRIM25 and its application to targeted protein ubiquitination” (Chemical Science, 2025).
# Some of the results follow.
# Compound: CC1Cc2ccccc2N1C(=O)C1CCCN(C1)C(=O)CCl (mixture of isomers) [TRIM25 ligand 11 (diastereomer mixture)]
# Assay: probe-labelled cysteine peptide fold change vs DMSO (competition) (log2 fold change); higher = less target engagement (more negative = stronger competition)
# Conditions: THP-1, incubation time: 4 h
# 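Further: competitive chemoproteomic profiling in live THP-1 cells with an iodoacetamide desthiobiotin (IA-DTB) probe, comparing probe-labelled peptide intensities in compound-treated cells against DMSO-treated controls.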
Target,probe-labelled cysteine peptide fold change (10 µM),probe-labelled cysteine peptide fold change (50 µM)
PSMC4_P43686_210_QIGIDPPRGVLMYGPPGCGK (UniProt P43686),-0.529,-0.421
PTK2B_Q14289_661_CWDYDPSDRPR (UniProt Q14289),0.011,-0.00536
PSTPIP1_O43586_148_CRDADDAEQAFER (UniProt O43586),-0.0494,0.222
PTPN7_P35236_62_SLGAVEPICSVNTPR (UniProt P35236),-0.0974,-0.0912
PSMD14_O00487_299_RHLEEHVDVLMTSNIVQCLAAMLDTVVFK (UniProt O00487),-0.25,-0.0286
PTK2B_Q14289_61_CTVQTEIR (UniProt Q14289),0.115,0.123
PSMD1_Q99460_659_YGAAMALGICCAGTGNK (UniProt Q99460),0.034,0.105
PSMA7_O14818_70_KICALDDNVCMAFAGLTADAR (UniProt O14818),-0.135,0.349
PSMD14_O00487_299_HLEEHVDVLMTSNIVQCLAAMLDTVVFK (UniProt O00487),-0.427,-0.257
PSMD4_P55036_58_SNPENNVGLITLANDCEVLTTLTPDTGR (UniProt P55036),-0.0408,-0.155
PSD4_Q8NDX1_705_SMSCQEFITNLNGLR (UniProt Q8NDX1),-0.0398,-0.0629
PTBP3_O95758_55_RDRPPCSPSR (UniProt O95758),0.129,0.254
PSMD4_P55036_87_ITFCTGIR (UniProt P55036),-0.00598,0.0893
PTK2B_Q14289_44_VCFYSNSFNPGK (UniProt Q14289),-0.0107,0.149
PTPRJ_Q12913_1294_MHRPLMVQTEDQYVFLNQCVLDIVR (UniProt Q12913),0.063,0.123
PSMB1_P20618_89_TVIGCSGFHGDCLTLTK (UniProt P20618),0.0959,0.02
PSMA4_P25789_115_YLLQYQEPIPCEQLVTALCDIK (UniProt P25789),0.135,0.195
PTPN23_Q9H3S7_697_TQSTCQAR (UniProt Q9H3S7),0.0073,0.0343
PSME2_Q9UL46_91_CGFLPGNEK (UniProt Q9UL46),-0.166,-0.195
PTBP3_O95758_68_KIPCDVTEAEIISLGLPFGK (UniProt O95758),0.0362,-0.0189
PSTPIP1_O43586_242_NALWVHSNQLSMQCVK (UniProt O43586),0.232,0.0662

Target,probe-labelled cysteine peptide fold change (10 µM),probe-labelled cysteine peptide fold change (50 µM)
PSMD6_Q15008_112_AEYLCR (UniProt Q15008),-0.0986,-0.0272
PSMC3_P17980_396_CTDDFNGAQCK (UniProt P17980),-0.0195,0.013
PUM1_Q14671_1007_GQVFALSTHPYGCR (UniProt Q14671),0.0773,-0.000816
PTAR1_Q7Z6K3_314_INLPHLLEEEVEFSTDLIDSYPGHETLWCHR (UniProt Q7Z6K3),-0.204,-0.291
PSMB5_P28074_111_VIEINPYLLGTMAGGAADCSFWER (UniProt P28074),0.385,0.111
PTGR1_Q14914_239_IAICGAISTYNR (UniProt Q14914),0.00206,0.149
PTRH1_Q86Y79_179_VGIGRPAHPEAVQAHVLGCFSPAEQELLPLLLDR (UniProt Q86Y79),-0.0974,0.0397
PTPN6_P29350_171_VMCEGGR (UniProt P29350),0.0886,0.0269
PUF60_Q9UHX1_487_NMVDPKDIDDDLEGEVTEECGK (UniProt Q9UHX1),-0.2,-0.375
PSMD9_O00233_216_GLLGCNIIPLQR (UniProt O00233),-0.0224,0.265
PTCD3_Q96EY7_551_DKHPPELQVAFADCAADIK (UniProt Q96EY7),-0.153,-0.12
PSMC2_P35998_270_KACLIFFDEIDAIGGAR (UniProt P35998),-0.456,-0.35
PSME1_Q06323_101_KKGEDEDKGPPCGPVNCNEK (UniProt Q06323),-0.56,-0.596
PTPN1_P18031_32_SGSWAAIYQDIRHEASDFPCR (UniProt P18031),-0.211,-0.177
PTPRC_P08575_789_CPDYIIQK (UniProt P08575),0.097,-0.0539
PSMG2_Q969U7_103_SKPFCEK (UniProt Q969U7),-0.0664,0.0674
PSMD13_Q9UNM6_182_FLGCVDIK (UniProt Q9UNM6),-0.0427,-0.0771
PSMG1_O95456_169_NMQITILTCR (UniProt O95456),-0.0944,0.000106
PSMD2_Q13200_139_FAADIISVLAMTMSGERECLK (UniProt Q13200),-0.214,-0.295
PSIP1_O75475_204_QPCPSESDIITEEDK (UniProt O75475),-0.128,-0.219
PTPRC_P08575_1169_STPLLIHCR (UniProt P08575),-0.00678,0.0204

# 15 entries from above, bar-delimited:
Target | probe-labelled cysteine peptide fold change (10 µM) | probe-labelled cysteine peptide fold change (50 µM)
PTPRJ_Q12913_1294_MHRPLMVQTEDQYVFLNQCVLDIVR (UniProt Q12913) | 0.063 | 0.123
PSMB1_P20618_89_TVIGCSGFHGDCLTLTK (UniProt P20618) | 0.0959 | 0.02
PSMA4_P25789_115_YLLQYQEPIPCEQLVTALCDIK (UniProt P25789) | 0.135 | 0.195
PTPN23_Q9H3S7_697_TQSTCQAR (UniProt Q9H3S7) | 0.0073 | 0.0343
PSME2_Q9UL46_91_CGFLPGNEK (UniProt Q9UL46) | -0.166 | -0.195
PTBP3_O95758_68_KIPCDVTEAEIISLGLPFGK (UniProt O95758) | 0.0362 | -0.0189
PSTPIP1_O43586_242_NALWVHSNQLSMQCVK (UniProt O43586) | 0.232 | 0.0662
PSMD6_Q15008_112_AEYLCR (UniProt Q15008) | -0.0986 | -0.0272
PSMC3_P17980_396_CTDDFNGAQCK (UniProt P17980) | -0.0195 | 0.013
PUM1_Q14671_1007_GQVFALSTHPYGCR (UniProt Q14671) | 0.0773 | -0.000816
PTAR1_Q7Z6K3_314_INLPHLLEEEVEFSTDLIDSYPGHETLWCHR (UniProt Q7Z6K3) | -0.204 | -0.291
PSMB5_P28074_111_VIEINPYLLGTMAGGAADCSFWER (UniProt P28074) | 0.385 | 0.111
PTGR1_Q14914_239_IAICGAISTYNR (UniProt Q14914) | 0.00206 | 0.149
PTRH1_Q86Y79_179_VGIGRPAHPEAVQAHVLGCFSPAEQELLPLLLDR (UniProt Q86Y79) | -0.0974 | 0.0397
PTPN6_P29350_171_VMCEGGR (UniProt P29350) | 0.0886 | 0.0269

# (cont.)

Target,probe-labelled cysteine peptide fold change (10 µM),probe-labelled cysteine peptide fold change (50 µM)
PTK2B_Q14289_89_LAECYGLR (UniProt Q14289),-0.0348,0.0529
PUF60_Q9UHX1_487_DIDDDLEGEVTEECGK (UniProt Q9UHX1),-0.0171,0.0587
PTPRF_P10586_207_YECVATNSAGTR (UniProt P10586),0.266,0.251
PSMB7_Q99436_87_IHFISPNIYCCGAGTAADTDMTTQLISSNLELHSLSTGR (UniProt Q99436),0.0709,0.0311
PSMB9_P28065_171_QPFAIGGSGSTFIYGYVDAAYKPGMSPEECRR (UniProt P28065),0.104,0.0454
PSMB8_P28062_7_ALLDVCGAPR (UniProt P28062),-0.148,-0.0898
PSME4_Q14997_718_QGYTLSCNLLHHLLR (UniProt Q14997),0.0481,0.266
PTCD2_Q8WV60_67_VAVACNLSGTK (UniProt Q8WV60),0.051,-0.0423
PTPN1_P18031_226_SGTFCLADTCLLLMDK (UniProt P18031),-0.0076,-0.261
PTK2B_Q14289_677_FTELVCSLSDVYQMEK (UniProt Q14289),0.0957,-0.0463
PSMA1_P25786_182_HMSEFMECNLNELVK (UniProt P25786),0.29,-0.174
PTPRC_P08575_434_DCLNLDK (UniProt P08575),-0.0373,0.0982
PTK2B_Q14289_310_CLPLEEGQAVLQLGIEGAPQALSIK (UniProt Q14289),-0.0303,0.107
PTDSS1_P48651_347_QYYAYLTDTQCKR (UniProt P48651),-0.0444,0.128
PSMA6_P60900_78_ITENIGCVMTGMTADSR (UniProt P60900),-0.225,-0.119
PSMD11_O00231_289_CVAQASK (UniProt O00231),0.0832,-0.051
PTRHD1_Q6GMV3_52_DLSQAPFSWPAGALVAQACHAATAALHTHR (UniProt Q6GMV3),-0.0302,0.0238
PTK2B_Q14289_972_LAQQNAVTSLSEECKR (UniProt Q14289),-0.0239,0.0276
PTCD2_Q8WV60_355_FDEIYGTLHITGQVTTDSLDAVLCHTPR (UniProt Q8WV60),0.058,-0.078
PTPRA_P18433_668_KEEECESYTVR (UniProt P18433),0.138,0.0888
PTPRC_P08575_1261_QDANCVNPLGAPEK (UniProt P08575),0.0558,0.00634

Target,probe-labelled cysteine peptide fold change (10 µM),probe-labelled cysteine peptide fold change (50 µM)
PSMB3_P49720_19_NCVAIAADR (UniProt P49720),0.205,0.0837
PTPN1_P18031_32_HEASDFPCR (UniProt P18031),0.156,-0.0443
PTPN9_P43378_567_AFSIQTPEQYYFCYK (UniProt P43378),-0.148,-0.195
PTDSS1_P48651_419_TYSECEDGTYSPEISWHHR (UniProt P48651),0.519,-0.0714
PTGES3_Q15185_76_SILCCLR (UniProt Q15185),-0.0218,-0.119
PTPN6_P29350_480_GLDCDIDIQK (UniProt P29350),-0.0438,-0.0727
PTPRC_P08575_610_SCNLDEQQELVERDDEK (UniProt P08575),-0.0215,-0.0457
PSIP1_O75475_373_CIEALDELASLQVTMQQAQK (UniProt O75475),0.279,0.141
PTPA_Q15257_202_IDYGTGHEAAFAAFLCCLCK (UniProt Q15257),0.0687,0.512
PTGFRN_Q9P2B2_655_CMVTAWSPVR (UniProt Q9P2B2),0.0593,0.183
PTPN12_Q05209_343_SCLVEGDAK (UniProt Q05209),0.155,-0.0495
PUM1_Q14671_1102_AVLIDEVCTMNDGPHSALYTMMK (UniProt Q14671),-0.292,-0.179
PTPN1_P18031_324_CREFFPNHQWVK (UniProt P18031),-0.209,-0.0639
PTER_Q96BW5_38+43_TLTHEHLAMTFDCCYCPPPPCQEAISK (UniProt Q96BW5),0.0301,-0.329
PSMA4_P25789_74_LNEDMACSVAGITSDANVLTNELR (UniProt P25789),0.31,0.0247
PTCD1_O75127_565_GLVPNLQTFCNLAIGCHRPK (UniProt O75127),-0.241,-0.0532
PTGES3_Q15185_75_SILCCLR (UniProt Q15185),0.0652,0.0446
PSMD10_O75832_48_TALHWACSAGHTEIVEFLLQLGVPVNDK (UniProt O75832),0.037,0.0505
PTPN11_Q06124_567_YSLADQTSGDQSPLPPCTPTPPCAEMR (UniProt Q06124),-0.0215,-0.086
PTPRC_P08575_311_FQLHDCTQVEK (UniProt P08575),0.0997,-0.155
